No constants are given. Whether binding was seen depends on the method and setting. Some entries that bind do so weakly or less than the wild type.
Biological target: T1, recombinant mouse (rm)Siglec-G (mouse, UniProt Q80ZE3 18-543)
T1 construct: Siglec-G, mouse, recombinant; UniProt Q80ZE3 is printed for the in silico model; check the vendor's data sheet; source: bought: R&D Systems (Cat. No. 10103-SL-050)
T1 sequence (looked up): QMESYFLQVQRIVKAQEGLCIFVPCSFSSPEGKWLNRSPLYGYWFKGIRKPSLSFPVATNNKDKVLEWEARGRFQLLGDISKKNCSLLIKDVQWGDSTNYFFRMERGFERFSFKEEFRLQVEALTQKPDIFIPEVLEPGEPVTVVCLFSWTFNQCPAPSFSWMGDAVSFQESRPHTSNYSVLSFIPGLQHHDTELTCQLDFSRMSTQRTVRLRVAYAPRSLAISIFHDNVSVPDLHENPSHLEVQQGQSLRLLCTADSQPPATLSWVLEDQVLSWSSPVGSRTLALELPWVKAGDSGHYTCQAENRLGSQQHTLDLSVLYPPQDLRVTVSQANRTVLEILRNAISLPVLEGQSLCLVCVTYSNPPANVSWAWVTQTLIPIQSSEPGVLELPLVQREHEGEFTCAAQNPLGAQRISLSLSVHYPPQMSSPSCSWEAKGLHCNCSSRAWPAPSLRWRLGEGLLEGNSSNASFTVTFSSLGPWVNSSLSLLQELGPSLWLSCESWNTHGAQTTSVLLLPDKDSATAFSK
Assay: SPR; same setting as a1 (rmCD47 immobilised on HS-carboxyl sensor); peptide C11 at 1 µM preincubated for 30 minutes with rmSiglec-G at 100, 250 and 500 nM, then injected; both purified

binding: binds
B1: Compound 11 (C11) (peptide)
peptide: ELKNRTVSWFS
